This note sets out measurements from patent publication US9987294B2, “Mitochondria-targeted anti-tumor agents” (University of Massachusetts, priority 2007, dated 2018).

“Also recorded” adds a separate entry of the source. Where a SMILES comes first, the peptide text is derived from it. [ ]: non-standard residue; d: D form.

Data set [1] relates to HeLa cells. Description: Subcellular localization of FITC-conjugated peptidomimetics in living cells (confocal microscopy, fluorescence of extracts). It is filed as cell-based, human.
Data set [2] relates to HeLa cell mitochondria. Description: Accumulation of FITC-conjugated peptidomimetics in isolated mitochondria and submitochondrial fractions. The arrangement: species or system human. The settings on record: for accumulation inside purified mitochondria (fluorescence): fluorescein-conjugated, purified HeLa cell mitochondria; for submitochondrial distribution: unfractionated mitochondria, intermembrane space, inner membrane, matrix.

Regarding `CSCC[C@@H](NC(=O)[C@@H](CCCCN)NC(=O)[C@@H](Cc1c[nH]c2ccccc12)NC(=O)[C@@H](CCCCN)NC(=O)[C@H](N)CCCCN)C(=O)N[C@H](CCCNC(=N)N)C(=O)N[C@H](CCCNC(=N)N)C(=O)N[C@H](CC(N)=O)C(=O)N[C@H](CCC(N)=O)C(=O)N[C@H](Cc1ccccc1)C(=O)N[C@H](Cc1c[nH]c2ccccc12)C(=O)N[C@@H](C(=O)N[C@H](CCCCN)C(=O)N[C@@H](C(=O)N[C@H](CCC(N)=O)C(=O)N[C@H](CCCNC(=N)N)C(=O)N[C@H](CC(C)C)C(=O)N[C@H](Cc1ccccc1)C(=O)N[C@H](C)C(=O)N[C@H](CS)C(=O)NCC(=O)N[C@H](CO)C(=O)N[C@H](CO)C(=O)N[C@H](Cc1c[nH]cn1)C(=O)N[C@H](CCCCN)C(N)=O)C(C)C)C(C)C` [Sheph-ANT] (H-[dK][dK][dW][dK][dM][dR][dR][dN][dQ][dF][dW][dV][dK][dV][dQ][dR][dL][dF][dA][dC]G[dS][dS][dH][dK]-NH2; N-terminus and C-terminus assumed), the “accumulation in total cell extracts and cytosol fractions of treated cells” value in data set [1] was “comparably accumulated in total cell extracts and cytosol fractions”. Moreover, the “co-localization with MitoTracker in intact living cells” value in data set [1] (confocal microscopy, fluorescein-conjugated) was “co-localized with the reactivity of a mitochondrial marker, MitoTracker”. Further, in data set [2], the “accumulation inside purified mitochondria (fluorescence)” value is “accumulated inside the purified mitochondria; also recorded: accumulate in mitochondria”; the submitochondrial distribution result is “present in unfractionated mitochondria, as well as in all submitochondrial compartments; also recorded: accumulates in the mitochondria, outer membrane/inner membrane space (OM+IMS), and inner membrane/matrix (IM+Matrix)”. Further, the “efficiency of intramitochondrial penetration (quantified fluorescence intensity)” value in data set [2] (isolated mitochondria) was “indistinguishable for efficiency of intramitochondrial penetration; also recorded: accumulate to similar levels in mitochondria”.

On to “Sheph: Shepherdin lacking the Antennapedia cell-penetrating sequence (LFACGSSHK; D-residues)”, for which, in data set [2], the “accumulation inside purified mitochondria (fluorescence)” value is given as “no fluorescence signal was detected” and the submitochondrial distribution result is recorded as “not found in mitochondria or any sub-mitochondrial compartment”.
